Protein sequences, listed by entry. Tags and fused reporters are not part of them.
UniProt P08515, whole entry: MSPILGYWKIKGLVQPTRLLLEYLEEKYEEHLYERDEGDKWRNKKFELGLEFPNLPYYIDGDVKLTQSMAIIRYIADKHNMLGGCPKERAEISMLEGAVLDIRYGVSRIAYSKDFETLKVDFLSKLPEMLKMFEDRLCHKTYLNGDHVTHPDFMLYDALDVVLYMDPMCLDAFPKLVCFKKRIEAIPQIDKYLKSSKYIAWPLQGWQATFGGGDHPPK

According to paper PMC5502268, “DNA Methylation Influences Chlorogenic Acid Biosynthesis in Lonicera japonica by Mediating LjbZIP8 to Regulate Phenylalanine Ammonia-Lyase 2 Expression”:

Experiments:
Assay in all cases: EMSA
[1] = test system: rLjbZIP1 (Lonicera japonica var. chinensis); settings: 40 fmol biotin probe, 15 fmol protein, 0 or 4 pmol competitor, room temperature 20 min, Pierce LightShift kit 20148; binding buffer, salt and pH not stated; recombinant protein; protein details: GST (pGEX-4T-1)
[2] = test system: rLjbZIP4 (Lonicera japonica var. chinensis); settings: 40 fmol biotin probe, 15 fmol protein, 0 or 4 pmol competitor, room temperature 20 min, Pierce LightShift kit 20148; binding buffer, salt and pH not stated; recombinant protein; protein details: GST (pGEX-4T-1)
[3] = test system: rLjbZIP18 (Lonicera japonica var. chinensis); settings: 40 fmol biotin probe, 15 fmol protein, 0 or 4 pmol competitor, room temperature 20 min, Pierce LightShift kit 20148; binding buffer, salt and pH not stated; recombinant protein; protein details: GST (pGEX-4T-1)
GST (empty pGEX-4T-1) = GST (empty pGEX-4T-1) (UniProt P08515); settings: crude E. coli protein, empty vector; 40 fmol biotin probe, 15 fmol protein, 0 or 4 pmol competitor, room temperature 20 min, Pierce LightShift kit 20148; binding buffer, salt and pH not stated; protein in an extract; protein details: GST

Measured: binding result

CTCTCCTGTCCACGTGTCATCAAC (double strand) [LjPAL2 G-box probe]
no binding: all assays above

For at least one entry, the source does not settle the construct or the ends of the probe. Negatives hold for the conditions tested. For some of these results: Results from cells or extracts need not show a direct contact.
